Library screen at single concentrations

From ChEMBL document CHEMBL3988442, “University of Dundee, Small-Polar-MMV Screening Library” (2021).

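Whole-cell growth test on Mycobacterium tuberculosis, read after 4 days in a medium based on cholesterol and the lipid DPPC; the read-out is not stated. Compounds at 500 µM. Direction is inferred from retests: higher values go with more growth inhibition. About 18,000 compounds were tested under these conditions; 5% (about 900) showed 50% or more at least once.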

Values are the deposited “Percent Effect”, in %.
The record does not define 0% and 100%; most values in the screen are far below 50% and negative numbers occur (in some assays of this library far below -100).
The compounds are a random part of those screened.

Result for CN1C(=O)Cc2ccccc2C1C(=O)N1CCCC1 (configuration not stated) was -5.76%.
Result for COc1ccccc1N1CCC(N)C1 (configuration not stated) was -3.899%.
Result for OCCCNc1cccc(Cl)c1-n1cccn1 was 40.98%.
Result for CC(NC(=O)NCCc1ccccn1)c1nncn1C (configuration not stated) was -16.61%.
Result for CO[C@H]1CNCC1NC(=O)Cc1cccc(F)c1F (some centres not stated) was -18.18%.
Result for COC(=O)CC(NC(=O)c1ccon1)C1CC1 (configuration not stated) was -12.75%.
Result for CC(=O)Nc1cccc(N2CC(C(N)=O)CC2=O)c1 (configuration not stated) was -0.3734%.
Result for CC(C(N)=O)N1CCN(C(=O)c2ccc(Br)cc2)CC1 (configuration not stated) was -9.796%.
Result for CC(C)NC(=O)c1cc2c([nH]c1=O)CCCC2 was -5.264%.
Result for O=C(CN1CCSCC1)NCC1CCCO1 (configuration not stated) was 30.07%.
Result for CN1CCN(CCCN(C)CC(=O)N(C)C)CC1 was 7.522%.
Result for O=S(=O)(c1cccc2nsnc12)N1CCNCC1 was -17.75%.
Result for Cc1nn(-c2ccc(F)cc2)c(Cl)c1C(=O)N(C)C was 22.87%.
Result for O=C1CCN(C2CCCc3ccc(F)cc32)CCN1 (configuration not stated) was 1.05%.
Result for COCCNC(=O)Cc1c(C)[nH]c2ccccc12 was -11.47%.
Result for COC(=O)c1snc(C(=O)NCc2ccccc2)c1N was 23.59%.
Result for Cc1ccc(NC(=O)N2CCSCC2)cc1C(N)=O was -13.83%.
Result for N#CC(CO)Cc1ccco1 (configuration not stated) was 5.884%.
Result for O=C1CC(c2ccccc2Cl)NC(=O)N1 (configuration not stated) was -9.2%.
Result for COc1cc2c(cc1CN(C)[C@H]1COC[C@@H]1O)OCO2 was 0.07953%.
Result for Nc1nnc(CNc2cc(C3CC(N)C3)ncn2)s1 (configuration not stated) was -6.933%.
Result for Cc1cc(=O)cc(C(=O)NCCCc2ccncc2)o1 was -7.065%.
Result for CSCC(CCO)Nc1nnnn1-c1ccc(C)cc1 (configuration not stated) was 19.63%.
Result for CC(C)OC(=O)c1cccnc1NCc1ccncc1 was 42.83%.
Result for CN(C(=O)C1CC12CCNCC2)C1CC1 (configuration not stated) was -0.3196%.
Result for C[C@@H](NC(=O)Nc1nccn(C)c1=O)c1ccccc1 was 19.3%.
Result for CCOc1cccc(CN2CCN(CCO)CC2)c1O was 8.363%.
Result for COC(C)(C)CNc1ccc(OC(F)F)cn1 was 19.07%.
Result for OCc1cc2ccccc2nc1N1CCSCC1 was 80.02%.
Result for COCCC(C)(C)CN was 3.054%.
Result for CCc1ccc(C(=O)Nc2ccncc2)o1 was -0.2183%.
Result for CC(C)c1ccc(CNCCNCCO)cc1 was 18.25%.
Result for NCCc1ccnc(N)c1 was 1.615%.
Result for CCOC(=O)c1cnn(-c2ccc(Br)cn2)c1N was -18.43%.
Result for COc1ccc(COCCNC(C)=O)cc1 was 17.76%.

Repeated from the top, 4 entries:

Compound	Percent Effect
CN1C(=O)Cc2ccccc2C1C(=O)N1CCCC1 (configuration not stated)	-5.76
COc1ccccc1N1CCC(N)C1 (configuration not stated)	-3.899
OCCCNc1cccc(Cl)c1-n1cccn1	40.98
CC(NC(=O)NCCc1ccccn1)c1nncn1C (configuration not stated)	-16.61